Here are results for 105 sequences from PubChem BioAssay AID1347423 (Functional Genomics Laboratory (NCATS/FGL), 2020).

The campaign covered roughly 52,000 sequences. About 210 (0.4%) were called active.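 Rule for the calls: active = gene whose silencing raises cell survival under the drug, median off-target-corrected z-score across its silencing RNAs 2 or more; inactive = the rest.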 The list shows a part of the results.

This experiment in a line: Resistance to Poly (ADP-Ribose) Polymerase inhibitor: Gene Identification via Genome-wide siRNA Screen. The conditions noted are these: mouse BRCA2 R2336H ES cells, olaparib, CellTiter-Glo viability; hits give high values. The method, boiled down: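 Genome-wide siRNA screen (3 siRNAs/gene, 20 nM) in mouse ES cells carrying hypomorphic BRCA2 R2336H; olaparib 500 nM added 48 h post-transfection, CellTiter-Glo viability 72 h later. Normalized to plate-median negative control; MAD z-scores, gene median, seed-adjusted.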
On the technique in general: In ATP-based viability assays light output follows the ATP content of the culture.
Consider GUCACCUAGCCUUUGUUGATT against Olfr1038, for which the z-score was inactive: 0.504.
To GGUCUUUAUACAGAGAUAATT against Narg1 belongs inactive: 0.392; to GGUAACAAAUGCUGUUUUATT against Cul1, inactive: -0.136; to GGUUAUAUAAGCAUCAAGGTT against Adamts18, inactive: 0.256.
Consider GCGAUAAAGCCAACACACCTT against LOC329416, for which the z-score is inactive: 1.29.
As to GUACUUGAAACGAACUGGATT against BC038881, the z-score is inactive: -1.37.
With GGAGAAGACAGCAAAGUACTT against Ppap2b, the z-score is inactive: -0.0301.
As to GGACUAGCGGACAUGGAUCTT against Kntc2, the z-score is inactive: -0.357.
As to GGAGAUUGUAGAGGACGUATT against U2af2, the z-score was inactive: -2.93.
Regarding GGGCAAAUCCUUUAGUUUGTT against Ysg2, the z-score is inactive: 0.117.
Consider GGAAAUCCGUGCAGAAAUUTT against Man1b, for which the z-score is inactive: 1.8.
With GGAAGAAGAGAAACACGAGTT against Xpa, the z-score is inactive: -0.152.
With “GGCUCCUAGUGAUUAAAAGTT against 4930578I06Rik”, the z-score is inactive: 0.334.
The figure for GGAGGAUUACAACACUGUUTT against Enpp3 is inactive: 0.405; for “GCCGUUUACCUUAGUCUGUTT against 2810410C14Rik” it is inactive: -0.791; for GGACCUUGGCCUUACACAATT against Astn2 it is inactive: -1.3.
Consider GGAGCUGAGAAACAAGAUUTT against Bspry, for which the z-score was inactive: 1.99.
Consider CGCACAAUUACCUCAGCAATT against Rassf3, for which the z-score is inactive: -0.485.
For GGAUGACUUCAAAUCAGAATT against Tnip2, the z-score is inactive: -0.0528.
For the sequence GCGGCAUAUGCCUACUCUUTT against Slc6a12, the z-score was active: -1.46.
In the case of GCGUGUACCCUUUCUAGUGTT against Slc18a3, the z-score is inactive: 0.958.
As for GGGCACAUACUCAGAUGAATT against Ngfr, the z-score was inactive: -0.5.
Take “GGAACUGUCCGAUCUUAGATT against 9930111I18Rik”: the z-score is inactive: -0.233.
To GGAUGAUGACAAUUUUGAATT against Nap1l4 belongs inactive: -0.13; to GCAGGAAUUCUUGAAUUAUTT against Ly75, inactive: -0.103; to “GGCUUACCUGUACAUUGAUTT against C130053K05Rik”, inactive: -2.17.
As to GGGCAUUUAGGGAAAAAAUTT against Zfp451, the z-score was inactive: 0.811.
The figure for GCCUCUCUCUAUCUAUGCATT against Tob2 is inactive: 0.661.
For the sequence GGAAUUUUCAGUGUGUAAATT against Adam9, the z-score is inactive: 0.229.
For the sequence GGUUUUAGUAUAAAGGCAGTT against Arfrp2, the z-score is inactive: -1.58.
For the sequence GGAGCAUGUCUUUAAGAAGTT against Stac, the z-score is inactive: -0.837.
Turning to GCAUCGUUAUGCGCCUCACTT against Neurog2, the z-score is inactive: 1.11.
In the case of GGUGGUGGUGGAAAAGAAGTT against Vars2, the z-score is inactive: -0.16.
For GCGACAAGAGGCUUUAGCATT against H47, the z-score is inactive: -0.352.
For CGCUCUCUACGAUCAUUGUTT against Olfr481, the z-score is inactive: -0.745.
On to CCUAACAUUCACUGUGUCATT against Olfr994, for which the z-score is inactive: 1.01.
Turning to CCGUUGGAUACUGUAGUUCTT against Gpr152, the z-score is inactive: 0.519.
The figure for CCACAAUUUGACCAACUUATT against Slc9a1 is inactive: 1.07; for GGGUCCUGUUUUUAUAAUATT against AW046014 it is inactive: 1.59; for GGCCAGCAAACAGUUUCUATT against Bai1 it is inactive: 2.51.
For the sequence AAUUGUAUGGUACUUCAUGTT against Olfr620, the z-score is inactive: -0.334.
The figure for “CCAACCCUAUUAGUGGAAGTT against 6720487G11Rik” is inactive: -0.323.
Regarding GGGACAAAAGCUCCUCUAGTT against Kap, the z-score was inactive: 0.638.
Turning to “GCAAUAGUUUACUUGAAGATT against 1700047E16Rik”, the z-score is inactive: 0.213.
Consider GCAUGAAAACACGUUUGGGTT against Hdac11, for which the z-score was inactive: 0.768.
With CCGGUUGUUUUGAGUGUUGTT against Rad9b, the z-score was inactive: 0.00893.
For the sequence GGGCUCAUCUCAGAGGAGATT against Astl, the z-score is inactive: -0.459.
To GGAAAACUAACCAAAAUAGTT against F3 belongs inactive: -0.633; to “GGCACUGGUUGCCAUAAAATT against 4930509O22”, inactive: -0.151; to “GGGUUUCACUUUCAGUGGGTT against 4632412I24Rik”, inactive: 1.39.
Take CCUGACAGUAGUUACUAUUTT against Olfr1154: the z-score is inactive: -0.936.
On to “GGAGAACAAAGUGCACUUGTT against D11Ertd636e”, for which the z-score is inactive: -1.05.
The figure for GGCUUCUUCAGAUCCUAAATT against Olfr554 is inactive: 1.4; for “CGAUAAACUGGAUACCACUTT against A430083B19Rik” it is inactive: -0.3; for GGGAAGAGAAUGAGAUAAATT against F7 it is inactive: -0.0684.
The figure for “GGAACAAGUAAAGACUGUUTT against 4932411K12” is inactive: -1.74; for GCAAUGGAUCUCGUUUUUCTT against Slc6a6 it is inactive: 1.77; for CCAAAUAGCCAAACUCUUGTT against Fgf17 it is inactive: -0.544.
The figure for GGAGUUUUCUUGUGUUUUUTT against Fgfbp1 is inactive: 0.524; for CGGAAACAACUGCUCUAUGTT against Scarf1 it is inactive: 0.0378.
CAAUGUUUGGGAACCUUCUTT against Olfr834: the z-score is inactive: -0.879.
Regarding GGAUUCAGGAGAAAAGACCTT against Olfr569, the z-score was inactive: -0.312.
As to “GGGAAACAUAUGGUUUUGCTT against D230050A05”, the z-score was inactive: -0.538.
Consider GCCAAGUGUUGGACUUUCATT against Fads3, for which the z-score was inactive: -0.51.
Take GGACCUAGAGGACUAUAAATT against Leprel1: the z-score is inactive: -0.265.
As to CCUAUGAGGUCAGAUUCUUTT against Ssr4, the z-score is inactive: 0.013.
As to GGAAGCUGUUCACCACUGCTT against Pex6, the z-score is inactive: -0.0859.
On to GGAAUUUUUGGACAAAGUATT against Grid2, for which the z-score was active: -3.07.
Turning to “GCUUAUUUGUGGUACACGGTT against D030056L22”, the z-score is inactive: 0.282.
Take GGUCAUAGUCACUGAUUCCTT against Magea5: the z-score is inactive: -1.31.
Regarding GCUCAUCGUGUUCGCUAUATT against Tuft1, the z-score is inactive: -0.57.
Consider GGACAGUGAUGAAGAUAUGTT against Nol1, for which the z-score is inactive: -0.528.
Turning to “GGAGGACAAUGGCUAAUAGTT against D930001I22Rik”, the z-score is inactive: -0.242.
The figure for GGGAGACACUACACAAAAATT against Hsd3b5 is inactive: 0.0155; for GGACAAGAAAACAGGUGUCTT against Tead3 it is inactive: 0.967; for GGACACAAGAAUGGGAGAATT against Asph it is inactive: -0.683.
The figure for “GGCUAUGUGGGAGAGAAGATT against A530065I17Rik” is inactive: 0.395.
On to “CGCUCAUAGAUGAUGCUCUTT against D19Wsu162e”, for which the z-score was inactive: 1.86.
The figure for GCUGGAUGCCGUAUCUAAGTT against Gpiap1 is inactive: -1.05.
Take “GGGAACAAAGAAUUUUACATT against 4121402D02Rik”: the z-score is inactive: 0.774.
Take GGUGUGUUCGAGUGUUUCUTT against Asb7: the z-score was inactive: 0.42.
The figure for GGAAACUGAUCUUUUGAAGTT against Ptgdr is inactive: 0.0499; for GCUGAAAAUACAAUCUCUGTT against Capn3 it is inactive: 2.18.
Turning to GGUAGAUCCUAUCCUGUCUTT against Mllt7, the z-score was inactive: -1.41.
Turning to GGUUGGAGAAGUUGUUACUTT against Arl1, the z-score is inactive: -0.532.
To “GCUGAGAACACAACAGCUUTT against 2310035K24Rik” belongs inactive: 0.311; to GGAACAGAGAGUAAAAUCUTT against ORF63, inactive: -0.129.
The figure for GGUGGAUAGUGACUUAUAUTT against Ifi47 is inactive: -0.999; for CCUCUGUAGUCGCACCUAGTT against Agrp it is inactive: -1.21; for GCUGUUCCGAUUGGAAAUUTT against Pcmt1 it is inactive: -0.629.
Turning to GGCCAUAGUGAAGAAAGAATT against Hrasls3, the z-score was inactive: -1.16.
GGAUGCAAGGGUUUUUUCCTT against Pparg: the z-score is inactive: 1.3.
Turning to “GCCUCACUUGAUGAAAUGGTT against C330023F11Rik”, the z-score is inactive: -2.2.
With “CGGGUUUGUAAUAUUGUAUTT against 2900024O10Rik”, the z-score was inactive: 0.511.
Consider GGGAAAACAGCAAAUAAUUTT against Efcbp1, for which the z-score is inactive: 1.12.
For the sequence GGGCUAGAAGAACAUGUAATT against Ear1, the z-score is inactive: 1.14.
For the sequence GGACAAGGCCUAUAGACCUTT against V1rl1, the z-score is inactive: 2.64.
CCGUCUUCGUUUGCCCUUGTT against Hod: the z-score was inactive: -1.45.
Take “GCUACUCGUUGUGAGAACUTT against 0610011N22Rik”: the z-score is inactive: 0.45.
In the case of GCACAGCUCUACAUAUUUCTT against Olfr313, the z-score was inactive: 0.637.
The figure for GGAAAAAGAGCAAAAGUCGTT against Rnpc2 is inactive: -0.37.
Consider GCCUUAACAAUGUUAAUCATT against Igsf4d, for which the z-score was inactive: 0.337.
The figure for GCUCAGCCUGAGUAACGCATT against Nup62 is inactive: -1.84; for GGCAUCAAGUUCUAUCUGUTT against Gabt4 it is inactive: -0.952.
Turning to “CGGUCUACAAUAACAACAGTT against 1700009J07Rik”, the z-score is inactive: 0.786.
